Record: PubChem BioAssay AID1224828 (NIAID, 2016)
Aim: 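Knock-downs that increase or decrease LPS-induced p65 nuclear translocation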 (primary screen). Cells: mouse RAW264.7 G9 macrophage reporter cells (GFP-p65, Tnf promoter-mCherry). Reagent: siRNA pool against mouse genes, 100 nM. Time to read-out: 2 days siRNA transfection, then 40 min LPS before fixation. Challenge: LPS (Salmonella minnesota R595) at 10 ng/ml. Measured: 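Microscopy ratio of nuclear to perinuclear-ring GFP-p65 signal, scaled to the plate median; gene score is the average of two replicate robust z-scores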. Direction: p65 translocation robust z-score: higher = more nuclear NF-kappaB p65 after LPS than the plate median; nuclear/cytoplasmic p65 ratio: higher = more nuclear NF-kappaB p65. Hit rule: 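Active if robust z is above 3.3 (negative regulators) or below -1.56, the Tlr4 control median (positive regulators); activity score 50 or more; control wells not called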. Calls: active = hit (p65 shift raised or lowered); inactive = no clear change.
The whole screen tested about 17,000 reagents; shown is a part drawn at random. 762 of all reagents (4.5%) were called active. 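Active calls include both raised and lowered p65 entry, mostly lowered; wells with fewer than 50 cells lack a z-score.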 The raw values are shown without normalisation. A reagent listed more than once was tested more than once; the source does not tell the runs apart. Reagent sequences are not shown.

Target gene | p65 translocation robust z-score | nuclear/cytoplasmic p65 ratio, rep 1 | nuclear/cytoplasmic p65 ratio, rep 2 | low cell count flag | activity call
Gal3st1 | -0.99 | 1.17 | 1.37 | enough cells to score | inactive
Hhip | 1.77 | 1.98 | 1.74 | enough cells to score | inactive
Plekhg4 | -1.35 | 1.11 | 1.14 | enough cells to score | inactive
Tuba1a | -0.87 | 1.36 | 1.42 | enough cells to score | inactive
Nat8f4 | – | 1.2 | 1.37 | fewer than 50 cells per well; well left out of scoring | inactive
Prpf19 | – | 1.07 | 0 | fewer than 50 cells per well; well left out of scoring | inactive
Trdmt1 | 0.69 | 1.59 | 1.45 | enough cells to score | inactive
Pcdhb11 | – | 1.63 | 1.22 | fewer than 50 cells per well; well left out of scoring | inactive
Ddx39a | 0.21 | 1.59 | 1.59 | enough cells to score | inactive
Mblac1 | -0.54 | 1.4 | 1.41 | enough cells to score | inactive
Pter | – | 1.23 | 1.13 | fewer than 50 cells per well; well left out of scoring | inactive
Chd1 | 0.76 | 1.5 | 1.53 | enough cells to score | inactive
En2 | -0.17 | 1.48 | 1.32 | enough cells to score | inactive
Mrm1 | 1.24 | 1.57 | 1.67 | enough cells to score | inactive
Txndc15 | -2.19 | 1.06 | 1.07 | enough cells to score | active
Psmb9 | -0.28 | 1.41 | 1.42 | enough cells to score | inactive
Nat8f5 | 0.44 | 1.65 | 1.87 | enough cells to score | inactive
1700019M22Rik | 0.68 | 1.53 | 1.51 | enough cells to score | inactive
Ciao2a | 0.46 | 1.36 | 1.59 | enough cells to score | inactive
Ralgps2 | 1.19 | 1.77 | 1.81 | enough cells to score | inactive
Myo6 | 0.47 | 1.48 | 1.42 | enough cells to score | inactive
Atp6v0e | -1.12 | 1.27 | 1.52 | enough cells to score | inactive
Enox1 | 0.51 | 1.66 | 1.61 | enough cells to score | inactive
Gtf2b | 1.45 | 1.57 | 1.61 | enough cells to score | inactive
Igsf1 | -0.87 | 1.42 | 1.34 | enough cells to score | inactive
Ric3 | 0.33 | 1.55 | 1.37 | enough cells to score | inactive
Adamts8 | -0.5 | 1.56 | 1.53 | enough cells to score | inactive
Gmeb1 | -1.02 | 1.22 | 1.32 | enough cells to score | inactive
Igdcc3 | 0.77 | 1.66 | 1.59 | enough cells to score | inactive
Shroom2 | 1.69 | 1.88 | 1.72 | enough cells to score | inactive
Cachd1 | 0.85 | 1.77 | 1.91 | enough cells to score | inactive
Klri2 | -0.82 | 1.31 | 1.38 | enough cells to score | inactive
Or2y1d | -1.6 | 1.45 | 1.14 | enough cells to score | active
Ddx52 | -1.56 | 1.31 | 1.36 | enough cells to score | inactive
Smim11 | – | 1.9 | 1.6 | fewer than 50 cells per well; well left out of scoring | inactive
Zfp353-ps | -0.16 | 1.43 | 1.2 | enough cells to score | inactive
P2ry4 | -1.67 | 1.24 | 1.38 | enough cells to score | active
Olig3 | -0.04 | 1.47 | 1.38 | enough cells to score | inactive
Myl12b | 0.26 | 1.84 | 1.73 | enough cells to score | inactive
Bst2 | – | 1.37 | 1.35 | fewer than 50 cells per well; well left out of scoring | inactive
Tm6sf2 | 0.96 | 1.48 | 1.3 | enough cells to score | inactive
Msantd2 | -0.69 | 1.55 | 1.65 | enough cells to score | inactive
Rhebl1 | – | 1.59 | 1.27 | fewer than 50 cells per well; well left out of scoring | inactive
Or8c13 | 0.86 | 1.6 | 1.37 | enough cells to score | inactive
Erf | -0.64 | 1.32 | 1.34 | enough cells to score | inactive
Stam2 | -0.85 | 1.41 | 1.45 | enough cells to score | inactive
Ccr2 | -1.72 | 1.29 | 1.31 | enough cells to score | active
Ercc8 | 0.17 | 1.47 | 1.42 | enough cells to score | inactive
Pop5 | -0.73 | 1.29 | 1.13 | enough cells to score | inactive
Coro1a | 0.18 | 1.52 | 1.39 | enough cells to score | inactive
Pbk | -0.71 | 1.68 | 1.2 | enough cells to score | inactive
Brwd1 | 0.99 | 1.62 | 1.78 | enough cells to score | inactive
Rtp4 | 0.72 | 1.66 | 1.78 | enough cells to score | inactive
Ankrd34c | -0.75 | 1.47 | 1.42 | enough cells to score | inactive
Pck2 | 1.86 | 1.8 | 1.76 | enough cells to score | inactive
Pck2 | – | 1.55 | 1.62 | fewer than 50 cells per well; well left out of scoring | inactive
Smurf1 | 1.16 | 1.78 | 1.78 | enough cells to score | inactive
Dusp15 | -0.12 | 1.54 | 1.29 | enough cells to score | inactive
Ngly1 | -0.63 | 1.56 | 1.6 | enough cells to score | inactive
Hspe1 | -1.18 | 1.26 | 1.25 | enough cells to score | inactive
Adamts1 | 0.07 | 1.6 | 1.65 | enough cells to score | inactive
Or4c31 | -1.28 | 1.46 | 1.39 | enough cells to score | inactive
Msantd3 | 2.39 | 1.66 | 1.79 | enough cells to score | inactive
Tbx1 | 0.2 | 1.5 | 1.6 | enough cells to score | inactive
Cln3 | 0.1 | 1.44 | 1.43 | enough cells to score | inactive
Or52e2 | – | 1.49 | 1.27 | fewer than 50 cells per well; well left out of scoring | inactive
Slc17a6 | 1.39 | 1.44 | 1.42 | enough cells to score | inactive
Or8s5 | 1.37 | 1.71 | 1.6 | enough cells to score | inactive
Mybpc1 | – | 1.24 | 1.28 | fewer than 50 cells per well; well left out of scoring | inactive
Timp2 | 0.14 | 1.5 | 1.57 | enough cells to score | inactive
Ankef1 | -1.07 | 1.47 | 1.45 | enough cells to score | inactive
Anxa1 | -0.04 | 1.66 | 1.57 | enough cells to score | inactive
Acss3 | – | 1.58 | 1.77 | fewer than 50 cells per well; well left out of scoring | inactive
Enpp3 | -0.31 | 1.38 | 1.36 | enough cells to score | inactive
Tas2r121 | -0.4 | 1.5 | 1.48 | enough cells to score | inactive
